Assay results taken from the supplement of paper PMC11451515.

What was measured:
Conditions in all cases: 48 h
SEM cells = experiment: cell viability relative to DMSO control; higher = less cytotoxic
Outline: (§1)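 Viability values are per-plate percentages of DMSO wells, with background from cell-free wells. Library compounds in DMSO were pin-dosed, in an 11-point threefold series from 47 μM to 0.79 nM, onto NOMO1 or SEM (500 cells/well) or P12-Ichikawa (1000 cells/well) leukemia cells in 1536-well plates (5 μl). Those cells had been adapted for at least four passages in each medium, and CellTiter-Glo One luminescence was read after 48 h at 37°C.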

NOMO1 [1] = experiment: as above
Outline: as §1

P12-Ichikawa [2] = experiment: as above
Outline: as §1

P12-Ichikawa [3] = experiment: AUC of viability dose-response curve (% viability x log10 dose units); higher = less sensitive
Outline: (§2)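 Medium-adapted leukemia cells in 1536-well plates, at 500 or 1000 cells/well, were incubated for 48 h at 37°C with library compounds in DMSO at 11 threefold doses from 47 μM to 0.79 nM. CellTiter-Glo One luminescence normalised per plate to DMSO and cell-free wells was fitted with a four-parameter log-logistic model over log10 doses. Area under the curve was integrated from this fit by trapezoidal rule, with curves beyond full viability scaled and failed quality-control curves removed.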

NOMO1 [4] = experiment: as above
Outline: as §2

N[S+](=O)([O-])c1cc(C(=O)O)c(NCc2ccco2)cc1Cl
cell viability [%]
Conditions	NOMO1 [1]	P12-Ichikawa [2]	SEM cells
HPLM + 10% dialyzed FBS, 0.000781 µM	101	94.6	39.2
HPLM + 10% dialyzed FBS, 0.00234 µM	107	85.4	80.3
HPLM + 10% dialyzed FBS, 0.00702 µM	108	78.8	98.2
HPLM + 10% dialyzed FBS, 0.0211 µM	97.3	97.5	93.6
HPLM + 10% dialyzed FBS, 0.0632 µM	86.3	97	79.8
HPLM + 10% dialyzed FBS, 0.19 µM	90.8	92.3	82.7
HPLM + 10% dialyzed FBS, 0.569 µM	95.3	76	84.2
HPLM + 10% dialyzed FBS, 1.71 µM	71.7	71.1	73.9
HPLM + 10% dialyzed FBS, 5.12 µM	80.7	82.7	96.5
HPLM + 10% dialyzed FBS, 15.4 µM	74.4	73.9	23.4
HPLM + 10% dialyzed FBS, 46.1 µM	63	82.2	85.5
RPMI 5 mM glucose + 10% FBS, 0.000781 µM	74	86.9	50.9
RPMI 5 mM glucose + 10% FBS, 0.00234 µM	73.2	90.3	101
RPMI 5 mM glucose + 10% FBS, 0.00702 µM	77.8	91.9	111
RPMI 5 mM glucose + 10% FBS, 0.0211 µM	77.6	83.5	115
RPMI 5 mM glucose + 10% FBS, 0.0632 µM	88.8	89.7	68.9
RPMI 5 mM glucose + 10% FBS, 0.19 µM	75.2	94.2	91.5
RPMI 5 mM glucose + 10% FBS, 0.569 µM	78.4	86.2	82.5
RPMI 5 mM glucose + 10% FBS, 1.71 µM	77.8	81.2	74.9
RPMI 5 mM glucose + 10% FBS, 5.12 µM	82.1	88.5	114
RPMI 5 mM glucose + 10% FBS, 15.4 µM	79.1	70.5	17.7
RPMI 5 mM glucose + 10% FBS, 46.1 µM	84	79.6	86.7
RPMI 5 mM glucose + 10% dialyzed FBS, 0.000781 µM	95.3	78	40.9
RPMI 5 mM glucose + 10% dialyzed FBS, 0.00234 µM	85.2	77.5	91.2
RPMI 5 mM glucose + 10% dialyzed FBS, 0.00702 µM	86.1	79.6	112
RPMI 5 mM glucose + 10% dialyzed FBS, 0.0211 µM	86.2	84.5	96.3
RPMI 5 mM glucose + 10% dialyzed FBS, 0.0632 µM	93.1	82.3	71.4
RPMI 5 mM glucose + 10% dialyzed FBS, 0.19 µM	96	81.7	99.1
RPMI 5 mM glucose + 10% dialyzed FBS, 0.569 µM	82.6	85.8	90.5
RPMI 5 mM glucose + 10% dialyzed FBS, 1.71 µM	82.5	77.5	77.5
RPMI 5 mM glucose + 10% dialyzed FBS, 5.12 µM	81.9	80.2	111
RPMI 5 mM glucose + 10% dialyzed FBS, 15.4 µM	82.1	71.2	14
RPMI 5 mM glucose + 10% dialyzed FBS, 46.1 µM	78.7	80.4	92.3

P12-Ichikawa [3]
Conditions	AUC of viability dose-response curve
HPLM + 10% dialyzed FBS	404
RPMI 5 mM glucose + 10% FBS	410
RPMI 5 mM glucose + 10% dialyzed FBS	382

Nc1ccc([S+](N)(=O)[O-])cc1
cell viability [%]
Conditions	NOMO1 [1]	P12-Ichikawa [2]	SEM cells
HPLM + 10% dialyzed FBS, 0.000781 µM	102	105	95.7
HPLM + 10% dialyzed FBS, 0.00234 µM	99.4	110	101
HPLM + 10% dialyzed FBS, 0.00702 µM	124	110	97.2
HPLM + 10% dialyzed FBS, 0.0211 µM	70.9	75.8	36.6
HPLM + 10% dialyzed FBS, 0.0632 µM	119	107	102
HPLM + 10% dialyzed FBS, 0.19 µM	126	107	116
HPLM + 10% dialyzed FBS, 0.569 µM	115	110	88.8
HPLM + 10% dialyzed FBS, 1.71 µM	100	105	40.7
HPLM + 10% dialyzed FBS, 5.12 µM	92.6	105	102
HPLM + 10% dialyzed FBS, 15.4 µM	95.5	106	104
HPLM + 10% dialyzed FBS, 46.1 µM	84.6	77.4	98.3
RPMI 5 mM glucose + 10% FBS, 0.000781 µM	95.1	116	110
RPMI 5 mM glucose + 10% FBS, 0.00234 µM	103	102	111
RPMI 5 mM glucose + 10% FBS, 0.00702 µM	99	110	91.1
RPMI 5 mM glucose + 10% FBS, 0.0211 µM	88.1	70.6	13.2
RPMI 5 mM glucose + 10% FBS, 0.0632 µM	96	101	113
RPMI 5 mM glucose + 10% FBS, 0.19 µM	101	99.9	105
RPMI 5 mM glucose + 10% FBS, 0.569 µM	103	104	104
RPMI 5 mM glucose + 10% FBS, 1.71 µM	93.2	107	17
RPMI 5 mM glucose + 10% FBS, 5.12 µM	91.3	98	96
RPMI 5 mM glucose + 10% FBS, 15.4 µM	95.1	99.3	96.5
RPMI 5 mM glucose + 10% FBS, 46.1 µM	89.8	77.1	78.6
RPMI 5 mM glucose + 10% dialyzed FBS, 0.000781 µM	103	108	105
RPMI 5 mM glucose + 10% dialyzed FBS, 0.00234 µM	100	109	102
RPMI 5 mM glucose + 10% dialyzed FBS, 0.00702 µM	102	104	93.4
RPMI 5 mM glucose + 10% dialyzed FBS, 0.0211 µM	72.2	71.6	25
RPMI 5 mM glucose + 10% dialyzed FBS, 0.0632 µM	99.9	110	104
RPMI 5 mM glucose + 10% dialyzed FBS, 0.19 µM	107	102	98
RPMI 5 mM glucose + 10% dialyzed FBS, 0.569 µM	109	103	91.5
RPMI 5 mM glucose + 10% dialyzed FBS, 1.71 µM	107	92	49.7
RPMI 5 mM glucose + 10% dialyzed FBS, 5.12 µM	93.7	88.9	101
RPMI 5 mM glucose + 10% dialyzed FBS, 15.4 µM	93.2	90.1	110
RPMI 5 mM glucose + 10% dialyzed FBS, 46.1 µM	92.1	78.8	82.5

AUC of viability dose-response curve
Conditions	HPLM + 10% dialyzed FBS	RPMI 5 mM glucose + 10% FBS	RPMI 5 mM glucose + 10% dialyzed FBS
NOMO1 [4]	461	458	468
P12-Ichikawa [3]	471	443	453
